Measured data: PubChem BioAssay AID504793 (Drosophila RNAi Screening Center, 2011)

Aim: 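Whole-genome screen for parts of the DNA damage checkpoint at G2/M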 (primary screen)
Cell system: Drosophila S2R+ cells
Knock-down reagent: long dsRNA against Drosophila genes, about 0.25 µg dsRNA per well
Timing: 4 days of dsRNA, then 4 hours of drug before read-out
Treatment: doxorubicin 0.5 µM for 4 hours to cause double-strand breaks, in cells also given a low, harmless dose of dsRNA against nbs to sensitise the assay
Measured: 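Per-well count of mitotic cells stained for phospho-histone H3 after doxorubicin exposure, used as mitotic index; counts are raw and not normalised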
Scale: mitotic cells: higher = more cells in mitosis, weaker G2 arrest
Hit rule: 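Genes are called active only when high mitotic counts were reproduced with independent dsRNAs and mitosis was checked for delay without damage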
Meaning of the calls: active = confirmed in follow-up tests; inactive = not confirmed
The screen tested about 23,000 reagents; below is a random part of those with a known target gene and a result. In the full data, 62 (0.27%) were called active. 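Calls come from follow-up tests whose scores are not deposited, so confirmed genes may have low counts here; counts are not normalised per plate.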 The raw values are shown without normalisation.

no.	Target gene	DRSC id	mitotic cells, replicate 1	Call
1	Spn42De (Serpin 42De)	DRSC05011	4	inactive
2	Spn42De (Serpin 42De)	DRSC28039	6	inactive
3	CG6583	DRSC02972	3	inactive
4	CG6583	DRSC27517	5	inactive
5	mEFTu1 (mitochondrial translation elongation factor Tu 1)	DRSC06959	9	inactive
6	mEFTu1 (mitochondrial translation elongation factor Tu 1)	DRSC29468	10	inactive
7	CG3163	DRSC04341	6	inactive
8	CG3163	DRSC28242	8	inactive
9	Chs2 (Chitin synthase 2)	DRSC11830	4	inactive
10	CG13008	DRSC19527	10	inactive
11	CG13008	DRSC19528	15	inactive
12	CG11927	DRSC00337	6	inactive
13	CG8661	DRSC20115	8	inactive
14	CG8661	DRSC29778	4	inactive
15	CG13855	DRSC14705	3	inactive
16	CG13855	DRSC26677	7	inactive
17	CG15719	DRSC19685	8	inactive
18	Alg3 (ALG3, alpha-1,3- mannosyltransferase)	DRSC04700	4	inactive
19	toc (toucan)	DRSC00169	9	inactive
20	toc (toucan)	DRSC00171	7	inactive
21	toc (toucan)	DRSC00842	8	inactive
22	CG9338	DRSC03213	4	inactive
23	CG9338	DRSC24503	10	inactive
24	Cyp311a1 (Cytochrome P450 311a1)	DRSC20239	6	inactive
25	Cyp311a1 (Cytochrome P450 311a1)	DRSC27062	10	inactive
26	AOX2 (Aldehyde oxidase 2)	DRSC15338	5	inactive
27	CG42758	DRSC10021	1	inactive
28	CG15824	DRSC00473	4	inactive
29	CG15824	DRSC27412	6	inactive
30	Mpi (Mannose phosphate isomerase)	DRSC16417	4	inactive
31	CG31793	DRSC02605	5	inactive
32	CG31793	DRSC24308	5	inactive
33	Tspo (Translocator protein)	DRSC00533	4	inactive
34	Glut1 (Glucose transporter 1)	DRSC07927	16	inactive
35	Glut1 (Glucose transporter 1)	DRSC08662	3	inactive
36	CG7903	DRSC16338	17	inactive
37	CG7903	DRSC29953	5	inactive
38	Arfip (Arfaptin)	DRSC15179	5	inactive
39	Arfip (Arfaptin)	DRSC27068	2	inactive
40	CG4563	DRSC04474	5	inactive
41	CheA29a (Chemosensory protein A 29a)	DRSC21486	9	inactive
42	Fibp	DRSC11031	7	inactive
43	Fibp	DRSC26529	11	inactive
44	TTLL6A (Tubulin tyrosine ligase-like 6A)	DRSC06618	5	inactive
45	TTLL6A (Tubulin tyrosine ligase-like 6A)	DRSC24494	6	inactive

Single entries from the entries so far.
Under “mitotic cells, replicate 1”, CG15824 [DRSC27412] reads 6
For “Call”, Fibp [DRSC11031] is entered as inactive
toc (toucan) [DRSC00171], mitotic cells, replicate 1 → 7
Fibp [DRSC26529], Call → inactive
Value of CG6583 [DRSC27517] in “Call”: inactive
